# Assay results: the supplement of paper PMC8728848
# Some of the results follow.
# Key:
# Assay in all cases: glycan array binding signal (z-score within array); higher = stronger binding
# Settings in all cases: glycan notation: IUPAC condensed, linker removed
# [1] = molecular target: Neu5Ac(a2-3)Gal(b1-3)GlcNAc6S
# Summary of the method: (§1)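 Columns mapping to the same glycan were averaged after glycan names were converted to IUPAC-condensed notation. The data come from 3228 arrays in the Consortium for Functional Glycomics database, limited to those with an available protein sequence. Binding is reported as a within-array Z-score averaged across arrays of one protein sequence and across linkers.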
# [2] = molecular target: Neu5Ac(a2-3)Gal(b1-3)[Fuc(a1-4)]GlcNAc
# Summary of the method: as §1
# [3] = molecular target: Neu5Ac(a2-3)Gal(b1-3)[Fuc(a1-4)]GlcNAc(b1-3)Gal(b1-3)[Fuc(a1-4)]GlcNAc
# Summary of the method: as §1
# [4] = molecular target: Neu5Ac(a2-3)Gal(b1-3)[Fuc(a1-4)]GlcNAc(b1-3)Gal(b1-4)[Fuc(a1-3)]GlcNAc
# Summary of the method: as §1
# [5] = molecular target: Neu5Ac(a2-3)Gal(b1-3)[GlcNAc(b1-6)]GalNAc
# Summary of the method: as §1
# [6] = molecular target: Neu5Ac(a2-3)Gal(b1-3)[Neu5Ac(a2-6)]GalNAc
# Summary of the method: as §1
# [7] = molecular target: Neu5Ac(a2-3)Gal(b1-3)[Neu5Ac(a2-6)]GlcNAc(b1-3)[Fuc(a1-3)[Gal(b1-4)]GlcNAc(b1-6)]Gal(b1-4)Glc
# Summary of the method: as §1
# [8] = molecular target: Neu5Ac(a2-3)Gal(b1-3)]Neu5Ac(a2-3)Gal(b1-4)]GlcNAc
# Summary of the method: as §1
# Neu5Ac(a2-3)Gal(b1-4)Glc = molecular target: Neu5Ac(a2-3)Gal(b1-4)Glc
# Summary of the method: as §1
# [9] = molecular target: Neu5Ac(a2-3)Gal(b1-4)GlcNAc
# Summary of the method: as §1
# [10] = molecular target: Neu5Ac(a2-3)Gal(b1-4)GlcNAc(b1-2)Man
# Summary of the method: as §1
# [11] = molecular target: Neu5Ac(a2-3)Gal(b1-4)GlcNAc(b1-2)Man(a1-3)[GlcNAc(b1-4)][Neu5Ac(a2-3)Gal(b1-4)GlcNAc(b1-2)Man(a1-6)]Man(b1-4)GlcNAc(b1-4)GlcNAc
# Summary of the method: as §1
# [12] = molecular target: Neu5Ac(a2-3)Gal(b1-4)GlcNAc(b1-2)Man(a1-3)[Neu5Ac(a2-3)Gal(b1-4)GlcNAc(b1-2)Man(a1-6)]Man(b1-4)GlcNAc(b1-4)GlcNAc
# Summary of the method: as §1
# [13] = molecular target: Neu5Ac(a2-3)Gal(b1-4)GlcNAc(b1-2)Man(a1-3)[Neu5Ac(a2-3)Gal(b1-4)GlcNAc(b1-2)Man(a1-6)]Man(b1-4)GlcNAc(b1-4)[Fuc(a1-6)]GlcNAc
# Summary of the method: as §1
# [14] = molecular target: Neu5Ac(a2-3)Gal(b1-4)GlcNAc(b1-2)Man(a1-3)[Neu5Ac(a2-6)Gal(b1-4)GlcNAc(b1-2)Man(a1-6)]Man(b1-4)GlcNAc(b1-4)GlcNAc
# Summary of the method: as §1
# [15] = molecular target: Neu5Ac(a2-3)Gal(b1-4)GlcNAc(b1-2)[Neu5Ac(a2-3)Gal(b1-4)GlcNAc(b1-4)]Man(a1-3)[GlcNAc(b1-4)][Neu5Ac(a2-3)Gal(b1-4)GlcNAc(b1-2)[Neu5Ac(a2-3)Gal(b1-4)GlcNAc(b1-6)]Man(a1-6)]Man(b1-4)GlcNAc(b1-4)GlcNAc
# Summary of the method: as §1
# [16] = molecular target: Neu5Ac(a2-3)Gal(b1-4)GlcNAc(b1-2)[Neu5Ac(a2-3)Gal(b1-4)GlcNAc(b1-4)]Man(a1-3)[GlcNAc(b1-4)][Neu5Ac(a2-3)Gal(b1-4)GlcNAc(b1-4)Man(a1-6)]Man(b1-4)GlcNAc(b1-4)GlcNAc
# Summary of the method: as §1
# [17] = molecular target: Neu5Ac(a2-3)Gal(b1-4)GlcNAc(b1-2)[Neu5Ac(a2-3)Gal(b1-4)GlcNAc(b1-6)]Man(a1-6)[Neu5Ac(a2-3)Gal(b1-4)GlcNAc(b1-2)Man(a1-3)][GlcNAc(b1-4)]Man(b1-4)GlcNAc(b1-4)GlcNAc
# Summary of the method: as §1
# [18] = molecular target: Neu5Ac(a2-3)Gal(b1-4)GlcNAc(b1-3)Gal
# Summary of the method: as §1
# [19] = molecular target: Neu5Ac(a2-3)Gal(b1-4)GlcNAc(b1-3)Gal(b1-3)GlcNAc
# Summary of the method: as §1
# [20] = molecular target: Neu5Ac(a2-3)Gal(b1-4)GlcNAc(b1-3)Gal(b1-4)GlcNAc
# Summary of the method: as §1
# [21] = molecular target: Neu5Ac(a2-3)Gal(b1-4)GlcNAc(b1-3)Gal(b1-4)GlcNAc(b1-2)Man(a1-3)[Neu5Ac(a2-3)Gal(b1-4)GlcNAc(b1-3)Gal(b1-4)GlcNAc(b1-2)Man(a1-6)]Man(b1-4)GlcNAc(b1-4)GlcNAc
# Summary of the method: as §1
# [22] = molecular target: Neu5Ac(a2-3)Gal(b1-4)GlcNAc(b1-3)Gal(b1-4)GlcNAc(b1-3)Gal(b1-4)GlcNAc
# Summary of the method: as §1
# [23] = molecular target: Neu5Ac(a2-3)Gal(b1-4)GlcNAc(b1-3)Gal(b1-4)GlcNAc(b1-3)Gal(b1-4)GlcNAc(b1-2)Man(a1-3)[Neu5Ac(a2-3)Gal(b1-4)GlcNAc(b1-3)Gal(b1-4)GlcNAc(b1-3)Gal(b1-4)GlcNAc(b1-2)Man(a1-6)]GalNAc
# Summary of the method: as §1
# [24] = molecular target: Neu5Ac(a2-3)Gal(b1-4)GlcNAc(b1-3)Gal(b1-4)GlcNAc(b1-3)GalNAc
# Summary of the method: as §1
# [25] = molecular target: Neu5Ac(a2-3)Gal(b1-4)GlcNAc(b1-3)Gal(b1-4)GlcNAc(b1-3)[Neu5Ac(a2-3)Gal(b1-4)GlcNAc(b1-3)Gal(b1-4)GlcNAc(b1-6)]GalNAc
# Summary of the method: as §1
# [26] = molecular target: Neu5Ac(a2-3)Gal(b1-4)GlcNAc(b1-3)Gal(b1-4)GlcNAc(b1-6)[Gal(b1-3)]GalNAc
# Summary of the method: as §1
# [27] = molecular target: Neu5Ac(a2-3)Gal(b1-4)GlcNAc(b1-3)Gal(b1-4)[Fuc(a1-3)]GlcNAc
# Summary of the method: as §1
# [28] = molecular target: Neu5Ac(a2-3)Gal(b1-4)GlcNAc(b1-3)GalNAc
# Summary of the method: as §1
# [29] = molecular target: Neu5Ac(a2-3)Gal(b1-4)GlcNAc(b1-3)[Neu5Ac(a2-3)Gal(b1-4)GlcNAc(b1-6)]GalNAc
# Summary of the method: as §1
binder,measurement,setting,value
"SAOUHSC 02783 (Staphylococcus aureus), Q5HD69 (protein) MIHSKKLTLGICLVLLIILIVGYVIMTKTNGRNAQIKDTFNQTLKLYPTKNLDDFYDKEGFRDQEFKKGDKGTWIVNSEMVIEPKGKDMETRGMVLYINRNTRTTKGYYFISEMTDDSNGRPKDDEKRYPVKMEHNKIIPTKPLPNDKLKKEIENFKFFVQYGNFKDINDYKDGDISYNPNVPSYSAKYQLNNDDYNVQQLRKRYDIPTKQAPKLLLKGDGDLKGSSVGSRSLEFTFVENKEENIYFTDSVQYTPSEDTRYESN",glycan array binding signal (z-score),[1],-0.737
same,glycan array binding signal (z-score),[2],-0.361
same,glycan array binding signal (z-score),[3],-0.391
same,glycan array binding signal (z-score),[4],0.308
same,glycan array binding signal (z-score),[5],0.251
same,glycan array binding signal (z-score),[6],0.042
same,glycan array binding signal (z-score),[7],0.955
same,glycan array binding signal (z-score),[8],1.61
same,glycan array binding signal (z-score),Neu5Ac(a2-3)Gal(b1-4)Glc,-0.093
same,glycan array binding signal (z-score),[9],0.134
same,glycan array binding signal (z-score),[10],0.804
same,glycan array binding signal (z-score),[11],1.05
same,glycan array binding signal (z-score),[12],0.306
same,glycan array binding signal (z-score),[13],0.516
same,glycan array binding signal (z-score),[14],0.096
same,glycan array binding signal (z-score),[15],0.399
same,glycan array binding signal (z-score),[16],0.63
same,glycan array binding signal (z-score),[17],-0.967
same,glycan array binding signal (z-score),[18],0.928
same,glycan array binding signal (z-score),[19],0.634
same,glycan array binding signal (z-score),[20],-0.623
same,glycan array binding signal (z-score),[21],-1
same,glycan array binding signal (z-score),[22],-1.2
same,glycan array binding signal (z-score),[23],0.617
same,glycan array binding signal (z-score),[24],-0.44
same,glycan array binding signal (z-score),[25],-0.068
same,glycan array binding signal (z-score),[26],-0.542
same,glycan array binding signal (z-score),[27],-0.998
same,glycan array binding signal (z-score),[28],-0.874
same,glycan array binding signal (z-score),[29],1.4

# 2 entries drawn at random from the list so far:
binder,measurement,setting,value
"SAOUHSC 02783 (Staphylococcus aureus), Q5HD69 (protein) MIHSKKLTLGICLVLLIILIVGYVIMTKTNGRNAQIKDTFNQTLKLYPTKNLDDFYDKEGFRDQEFKKGDKGTWIVNSEMVIEPKGKDMETRGMVLYINRNTRTTKGYYFISEMTDDSNGRPKDDEKRYPVKMEHNKIIPTKPLPNDKLKKEIENFKFFVQYGNFKDINDYKDGDISYNPNVPSYSAKYQLNNDDYNVQQLRKRYDIPTKQAPKLLLKGDGDLKGSSVGSRSLEFTFVENKEENIYFTDSVQYTPSEDTRYESN",glycan array binding signal (z-score),[12],0.306
same,glycan array binding signal (z-score),[16],0.63
